Data reported in paper PMC12569429.
Construct, isoform or probe ends are uncertain for at least one entry.

Test system: GST-PtABI3_B3 (Pinus tabuliformis)
Assay: EMSA
Conditions: EMSA with Beyotime GS009 chemiluminescent kit; pH and temperature not stated; recombinant protein; protein details: N-terminal GST (pGEX-4T-1)

## GAATCATTTGGGTCATGCATCCTATGCATGCTCATCGAT (double strand) [PtDAL1-RY probe]
  binding result: binds
